{"sequences": {"note": "Chains of the proteins cited; added tags and fusions are not shown.", "UniProt Q0JBA9, entry or part of it": "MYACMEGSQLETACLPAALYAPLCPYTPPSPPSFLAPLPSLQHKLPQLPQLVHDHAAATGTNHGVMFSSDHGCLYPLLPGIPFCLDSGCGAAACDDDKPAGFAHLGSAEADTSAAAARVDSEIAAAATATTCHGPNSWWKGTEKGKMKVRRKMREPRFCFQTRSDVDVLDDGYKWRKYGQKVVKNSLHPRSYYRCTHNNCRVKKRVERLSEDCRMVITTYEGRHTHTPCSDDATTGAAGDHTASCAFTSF"}, "source": "paper PMC7819943", "about": "“Rice protein-binding microarrays: a tool to detect cis-acting elements near promoter regions in rice”", "note": "The list shows a part of the results."}
{"target": "OsWRKY34 (Oryza sativa, UniProt Q0JBA9 1-250)", "assay": "protein-binding microarray (RPBM); PBS, 2% BSA, 51.3 ng/ul salmon testes DNA, 50 uM zinc acetate, 200 nM TF, 25 C, 1 h; high values mean tight binding", "conditions": "protein: recombinant; tags: N-terminal polyhistidine and DsRed monomer fusion (pET32a); label: CyDye5-dUTP incorporated in the synthesized complementary strand; 3' TTTTT single-stranded linker to array surface; dsDNA, one strand shown", "in_short": "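In PBS with 2% BSA, salmon testes DNA and 50 µM zinc acetate, 200 nM protein was incubated on a custom Agilent array at 25 °C for 1 h and then washed off. The array had been made double-stranded by primer extension with Cy5-dUTP and blocked with 2% BSA. The proteins were transcription factors fused N-terminally to polyhistidine and DsRed, expressed in E. coli BL21-CodonPlus and purified on Ni–NTA. The binding signal is per-feature fluorescence intensity (arbitrary units) from an Axon 4000B scanner.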"}
{"sequence": "TACTCAAACTTAATATTAACTACTCTCTCCATTTCATATTCGGAGTCACCTAGTGCAG", "binding signal": "10500 fluorescence intensity (a.u.)"}
{"sequence": "GTACTATCGTCACTTGACATGCGCATGGCTTCAACTGAGTCGGAGTCACCTAGTGCAG", "binding signal": "8300 fluorescence intensity (a.u.)"}
{"sequence": "AAACACCATACTTCTTGTATTTGGACGGGCGGTAATTCACCGGAGTCACCTAGTGCAG", "binding signal": "8430 fluorescence intensity (a.u.)"}
{"sequence": "TGATCGCCGTGGTATCCTGTTGCGGTTTGTTTCGTGGTGTCGGAGTCACCTAGTGCAG", "binding signal": "8930 fluorescence intensity (a.u.)"}
{"sequence": "AAATTATTTTCTCCCGATATTTGTTCATATTCAGGACTGACGGAGTCACCTAGTGCAG", "binding signal": "8160 fluorescence intensity (a.u.)"}
{"sequence": "GTGTTGTGTTCATCTCCTTCGTTTACTTCTCTTCTCCTCTCGGAGTCACCTAGTGCAG", "binding signal": "11500 fluorescence intensity (a.u.)"}
{"sequence": "CAAACCCCAACCCTCGTTGACCCTTCGCAACCAAATCCCTCGGAGTCACCTAGTGCAG", "binding signal": "10800 fluorescence intensity (a.u.)"}
{"sequence": "TCAGGCCATATGCATTTCTGTACAGCTTACCTCGGATGATCGGAGTCACCTAGTGCAG", "binding signal": "10700 fluorescence intensity (a.u.)"}
{"sequence": "TCTGGTCTCTTCTCCTCTCTTCGTCTTCGTCTTTGCCCATCGGAGTCACCTAGTGCAG", "binding signal": "9840 fluorescence intensity (a.u.)"}
{"sequence": "CCGTACTTATCTACTTATCATCTACGTGTACCGTGTTTATCGGAGTCACCTAGTGCAG", "binding signal": "8300 fluorescence intensity (a.u.)"}
{"sequence": "GACGAGTAGTATTGTGTGGTGTGCATGTGTAGGGAGGGCACGGAGTCACCTAGTGCAG", "binding signal": "9500 fluorescence intensity (a.u.)"}
{"sequence": "TCTATATTGCTATTTTCATTTTAAAACTATTTCTTGCCACCGGAGTCACCTAGTGCAG", "binding signal": "10300 fluorescence intensity (a.u.)"}
{"sequence": "GATGACACTTTGACCACCCTCAACACTTTTATCTATCTATCGGAGTCACCTAGTGCAG", "binding signal": "9680 fluorescence intensity (a.u.)"}
{"sequence": "GTAGCCGTGGACTCGCCGTACCTTTTTTGCTTTGCTTCCCCGGAGTCACCTAGTGCAG", "binding signal": "10100 fluorescence intensity (a.u.)"}
{"sequence": "TGAACCCATTTTTCCGTGCGGAACAAGTTACCGTCCGCACCGGAGTCACCTAGTGCAG", "binding signal": "8330 fluorescence intensity (a.u.)"}
{"sequence": "GGCACCATTTCCTTCTCGTCCTCTTCCGAGTTTCCGACCCCGGAGTCACCTAGTGCAG", "binding signal": "8430 fluorescence intensity (a.u.)"}
{"sequence": "CAAGGCCATATTGATATATCCATTATATACACACCTCAATCGGAGTCACCTAGTGCAG", "binding signal": "8120 fluorescence intensity (a.u.)"}
{"sequence": "CGGTGCGCTCTTTGTGTGTGATCTCTTTGGTCGCCGGCGGCGGAGTCACCTAGTGCAG", "binding signal": "8840 fluorescence intensity (a.u.)"}
{"sequence": "ATCAAGAGAGATATGGGGAGGGTCGGTAGGGATCAGACTTCGGAGTCACCTAGTGCAG", "binding signal": "9080 fluorescence intensity (a.u.)"}
{"sequence": "ATGTACTGGTGATCTTTAGTTTACCTCTGGAAGTTAGTGTCGGAGTCACCTAGTGCAG", "binding signal": "8330 fluorescence intensity (a.u.)"}
{"sequence": "TCGGGCGGTTTAAGTAGGTTTTCATTTTCTTCGCAGCTTCCGGAGTCACCTAGTGCAG", "binding signal": "10200 fluorescence intensity (a.u.)"}
{"sequence": "TATTCCTAGCTGGTTGAGGTCGCGAAGGTTGACGCTGTTCCGGAGTCACCTAGTGCAG", "binding signal": "10600 fluorescence intensity (a.u.)"}
{"sequence": "TCTTACTATCGATTTTAATTGTGATTTTATTCCTACTTTTCGGAGTCACCTAGTGCAG", "binding signal": "10100 fluorescence intensity (a.u.)"}
{"sequence": "CAGTGGCGGGATTGGAAGAGGGCACTCAGGTGTTGGGTCTCGGAGTCACCTAGTGCAG", "binding signal": "8610 fluorescence intensity (a.u.)"}
{"sequence": "TCACCATCCACCATCTCGCTTTCTGGGCTGGCTCGTCAGGCGGAGTCACCTAGTGCAG", "binding signal": "10500 fluorescence intensity (a.u.)"}
{"sequence": "GAAAAAAATGTAAAAACTGTTGACTTTTAGTCAACGCCATCGGAGTCACCTAGTGCAG", "binding signal": "16400 fluorescence intensity (a.u.)"}
{"sequence": "CATTTTCTTTCACGACTGTTTTCTTCAACTTCATAATCTCCGGAGTCACCTAGTGCAG", "binding signal": "10200 fluorescence intensity (a.u.)"}
{"sequence": "TTTGCCATCTCTTTCTTTCTGGGCTGCTTTCACCTTTTGCCGGAGTCACCTAGTGCAG", "binding signal": "8930 fluorescence intensity (a.u.)"}
{"sequence": "TTAATGTATGACACTGTTGACTTTTTTTCCAACGTTTGACCGGAGTCACCTAGTGCAG", "binding signal": "21900 fluorescence intensity (a.u.)"}
{"sequence": "ATTGGGTTCCTATATAGACTCCTCTTTCCATATTGCTTTTCGGAGTCACCTAGTGCAG", "binding signal": "10100 fluorescence intensity (a.u.)"}
{"sequence": "ACTCCCGGTCCCATGTCACCGACACATGTACATCTCAGCACGGAGTCACCTAGTGCAG", "binding signal": "8650 fluorescence intensity (a.u.)"}
{"sequence": "TCCGCTTCTCTTCTCTTCTCTTCTGGTCTCGCTGTTAGATCGGAGTCACCTAGTGCAG", "binding signal": "8430 fluorescence intensity (a.u.)"}
{"sequence": "CCGTGGGCCAGACCTTTTTCTTCGACGCTAGACCTGACTACGGAGTCACCTAGTGCAG", "binding signal": "9780 fluorescence intensity (a.u.)"}
{"sequence": "AGTTTCAAGGTGTTCTTTAGCTTTCTATGTTCTGTTGGGGCGGAGTCACCTAGTGCAG", "binding signal": "10600 fluorescence intensity (a.u.)"}
{"sequence": "CTTTCAGTTACGGGCCCCACCTGTCATTCTCTCACCTCTCCGGAGTCACCTAGTGCAG", "binding signal": "8750 fluorescence intensity (a.u.)"}
{"sequence": "ATCTCACCCATCTTAACCTCTCCACCTGCAACTTCGCTGGCGGAGTCACCTAGTGCAG", "binding signal": "8080 fluorescence intensity (a.u.)"}
{"sequence": "AGTGGTCTATATGTCATTGCACCTGTATGCCAAGCCAGAACGGAGTCACCTAGTGCAG", "binding signal": "8410 fluorescence intensity (a.u.)"}
{"sequence": "AGGTTCGACCCCATGTACTATGAATCGACATTTATTTGAGCGGAGTCACCTAGTGCAG", "binding signal": "8640 fluorescence intensity (a.u.)"}
{"sequence": "CTTCCTCTCTCTCTTCGTCAACACCACTCACTAGCTACTGCGGAGTCACCTAGTGCAG", "binding signal": "8270 fluorescence intensity (a.u.)"}
{"sequence": "ATGTGTTTTCACTCGAGATTTTGGTCCACGTGCTTTTCTGCGGAGTCACCTAGTGCAG", "binding signal": "10200 fluorescence intensity (a.u.)"}
{"sequence": "TTTTGGGCATGTGAGATCTTTTCAAAAGTTTACTTTTAATCGGAGTCACCTAGTGCAG", "binding signal": "8480 fluorescence intensity (a.u.)"}
{"sequence": "CCTTCATTCTCTCTCTCTCTTCTTTCTCTCTCCTCCTTCCCGGAGTCACCTAGTGCAG", "binding signal": "8060 fluorescence intensity (a.u.)"}
